Primary screen of a compound library

The values are deposited in ChEMBL (CHEMBL3988442, “University of Dundee, Small-Polar-MMV Screening Library” (2021)).

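Viability assay of Plasmodium falciparum sporozoites; the read-out is not stated. The concentration is filed as 10 mM, unlikely as a test dose, so the dose is not known. The record gives no direction; compounds that gave an IC50 in retests scored well above the rest, so higher reads as lower viability. Strong results were mostly tested again. Size under these conditions: about 34,000 compounds, about 280 of them at 50% or above in at least one test.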

Each number is a percent effect as filed. The record does not define 0% and 100%; most values in the screen are far below 50% and negative numbers occur (in some assays of this library far below -100). The compounds are a random part of those screened. Two or more numbers in one place are separate tests of the same structure; such repeats can differ widely.

{"smiles": "CC(CNC(=O)c1ccccc1Oc1cccnc1)N(C)C", "stereo": "stereo unspecified", "percent effect": -5.529}
{"smiles": "CCc1nc(CN(C)C2CCN(CCc3ccccn3)C2)no1", "stereo": "stereo unspecified", "percent effect": -8.333}
{"smiles": "O=C(CCC1CCN(Cc2ncc[nH]2)CC1)Nc1ccccc1Cl", "percent effect": -0.3119}
{"smiles": "Cc1ncc2c(n1)CCN(Cc1nc3ccccc3o1)C2", "percent effect": -11.03}
{"smiles": "CC1(C(=O)NC2CCCC2)CCCN(c2cnccn2)C1", "stereo": "stereo unspecified", "percent effect": 10.81}
{"smiles": "O=C(NCCNc1cnccn1)N1CCN(Cc2cccnc2)CC1", "percent effect": 2.148}
{"smiles": "O=C(O)c1ccn(-c2ccccc2NS(=O)(=O)c2cccc(F)c2)n1", "percent effect": -4.902}
{"smiles": "CCn1ncc2c1C(COC)CN(Cc1nccs1)C2", "stereo": "stereo unspecified", "percent effect": 6.404}
{"smiles": "CCc1c(C(=O)NC2CCS(=O)(=O)C2)cnn1-c1ccc(F)cc1", "stereo": "stereo unspecified", "percent effect": -4.194}
{"smiles": "CC(C)NC(=O)CC1CC2(CCN(CC3CC3)CC2)Oc2ccccc21.O=C(O)C(F)(F)F", "stereo": "stereo unspecified", "percent effect": 11.82}
{"smiles": "O=C(O)c1csc(S(=O)(=O)N2CCCc3cc(OC(F)F)ccc32)c1", "percent effect": -10.45}
{"smiles": "[H][C@@]12CCN(c3ncccn3)C[C@]1([H])[C@@H](CN(C)Cc1cccnc1)OC2", "percent effect": 3.663}
{"smiles": "CCc1ncnc(N2CCCC(c3cc(C(N)=O)[nH]n3)C2)c1F", "stereo": "stereo unspecified", "percent effect": -2.105}
{"smiles": "CN1CCN(C2CCN(CCOc3cccc(F)c3)CC2)C1=O", "percent effect": -4.164}
{"smiles": "COc1c(CNC2CCc3cc(F)ccc32)c(C(C)C)nn1C", "stereo": "stereo unspecified", "percent effect": "22.46 and 32.68 and 6.752"}
{"smiles": "COc1ncccc1C(=O)N1CCN(C(=O)Cc2ccccn2)CC1", "percent effect": "-22.43 and -22.23 and -11.2"}
{"smiles": "COCC(=O)N1CCCC1c1cc(Nc2nnc(C)s2)nc(C)n1", "stereo": "stereo unspecified", "percent effect": -6.574}
{"smiles": "O=C1CCC2(CCCN(C(=O)c3cnccn3)CC2)N1", "stereo": "stereo unspecified", "percent effect": 1.711}
{"smiles": "Cc1ccc(-c2nnc(C3CCCN3S(=O)(=O)c3cnn(C)c3C)o2)s1", "stereo": "stereo unspecified", "percent effect": 4.403}
{"smiles": "Cc1cc(C(=O)NCC(C)N2CCc3ccccc32)no1", "stereo": "stereo unspecified", "percent effect": -3.733}
{"smiles": "Clc1snnc1CN1CCCC(Cn2cncn2)C1", "stereo": "stereo unspecified", "percent effect": -19.98}
{"smiles": "CNc1ncccc1CN1CCCCC1c1ccnc(N)n1", "stereo": "stereo unspecified", "percent effect": -0.6695}
{"smiles": "O=C(O)C(F)(F)F.O=C1CC[C@]2(CC[C@@H](NC3CCOCC3)CC2)N1Cc1ccccc1", "percent effect": 8.383}
{"smiles": "COc1ccc(CN2CCC3(CCCNC3)C2)cc1Cn1cccn1", "stereo": "stereo unspecified", "percent effect": -2.544}
{"smiles": "O=C(NCC1CC1)c1cc(Br)cnc1N1CCCCC1", "percent effect": -16.37}
{"smiles": "CC(C)N(C)Cc1cncc2c1CCN(CC1CC1)C2.Cl.Cl.Cl", "percent effect": 13.84}
{"smiles": "Cn1cc(N2CC3(COCCN(Cc4nccs4)C3)OCC2=O)cn1.O=C(O)C(F)(F)F", "stereo": "stereo unspecified", "percent effect": -14.36}
{"smiles": "O=c1[nH][nH]cc1-c1ccnc(NCCN2CCCCC2)n1", "percent effect": 14.65}
{"smiles": "COc1cc(C(=O)Nc2nc(C)no2)cc(Cl)c1OC", "percent effect": 8.774}
{"smiles": "CC(Cn1cccn1)NCc1csc(-c2cccs2)n1", "stereo": "stereo unspecified", "percent effect": "3.003 and 32.68 and 56.8"}
{"smiles": "CCn1c(N)nc2cc(C(=O)NCCc3ccccc3F)cnc21", "percent effect": "83.82 and 65.98"}
{"smiles": "CC[C@@H]1N(Cc2nccs2)CCC[C@]12CCC(=O)N2C.O=C(O)C(F)(F)F", "percent effect": -6.679}
{"smiles": "Cc1cc(OCC(=O)N2CCCC(c3nccs3)C2)no1", "stereo": "stereo unspecified", "percent effect": 3.812}
{"smiles": "Cl.N#Cc1cccnc1OC1CCNCC1", "percent effect": "-24.57 and -19.27"}
{"smiles": "CCN(C)C(=O)CN1CCC(c2cc(N3CCOCC3)nc(C)n2)CC1", "percent effect": 12.9}
{"smiles": "Cc1cc(NC(=O)CN2CCCC(Cn3nc(C)nc3C)C2)n(C)n1", "stereo": "stereo unspecified", "percent effect": 5.746}
{"smiles": "O=C(NC1CC1)C1=CC2(CCN(CCO)CC2)c2ccccc21.O=C(O)C(F)(F)F", "percent effect": 5.517}
{"smiles": "COc1c(Cl)cc(C(=O)NCc2n[nH]c(C)n2)cc1Cl", "percent effect": 7.119}
{"smiles": "CN(CC1(O)CCCN(c2ccccn2)C1)C(=O)Cc1ccsc1", "stereo": "stereo unspecified", "percent effect": -21.45}
{"smiles": "Cc1cccc(N2CCC3(CCCN(C(=O)c4cccnc4)C3)CC2)n1.O=C(O)C(F)(F)F.O=C(O)C(F)(F)F", "percent effect": -13.49}
{"smiles": "CCC(CC)C(=O)NC1CCCc2nc(N3CCOCC3)ncc21", "stereo": "stereo unspecified", "percent effect": -2.29}
{"smiles": "CC(C)n1cnc(-c2nc(C(=O)NC3CC3)c3ccccn23)c1", "percent effect": 6.582}
{"smiles": "CN(C)c1ncc2c(n1)C1(CCN(Cc3ccccc3)C1)COC2.O=C(O)C(F)(F)F", "stereo": "stereo unspecified", "percent effect": -8.326}
{"smiles": "CCN(Cc1nc2c(cnn2C)c(=O)[nH]1)c1cccc(Cl)c1", "percent effect": -10.17}
{"smiles": "CCc1nnc(CNC2CCCN(Cc3noc(C4CC4)n3)C2)o1", "stereo": "stereo unspecified", "percent effect": -9.014}
{"smiles": "CC(C(=O)NCc1ccc(N2CCN(C)CC2)nc1)n1cccn1", "stereo": "stereo unspecified", "percent effect": 6.587}
{"smiles": "COc1cccc(CN(C)C(=O)Nc2ccc3c(c2)OCCO3)c1", "percent effect": "-37.88 and -2.593 and -14.01"}
{"smiles": "[H][C@]12CCN(Cc3ccncc3)C(=O)[C@]1([H])CN(CC)C2", "percent effect": -4.816}
{"smiles": "CN1CCC(c2cccc(-c3cccc(C(=O)O)c3)n2)CC1", "percent effect": 10.86}
{"smiles": "COC(=O)CNC(=O)c1sc(-c2ccc(Cl)s2)nc1C", "percent effect": 3.307}
{"smiles": "CN(C)c1ncc(CN2CCC(c3nnsc3S(C)(=O)=O)CC2)cn1", "percent effect": -0.8294}
{"smiles": "O=C(c1ccc2[nH]c(=O)[nH]c2c1)N1CCC(Nc2cccnn2)CC1", "percent effect": 2.212}
{"smiles": "O=C(O)C(F)(F)F.[H][C@@]12CN(Cc3nccs3)C[C@]1([H])CN(C(=O)N1CCOCC1)C2", "percent effect": -7.729}
{"smiles": "CC(=O)N1CCC2(CCCN(Cc3ccc(Cl)c(C(F)(F)F)c3)C2)C1", "stereo": "stereo unspecified", "percent effect": -7.271}
{"smiles": "O=C(O)C(F)(F)F.O=C(O)C(F)(F)F.O=C(c1n[nH]c2c1CN(C1CCOC1)CC2)N1CCOCC1", "stereo": "stereo unspecified", "percent effect": 18.83}

The last 7 entries again:

SMILES	percent effect
CN1CCC(c2cccc(-c3cccc(C(=O)O)c3)n2)CC1	10.86
COC(=O)CNC(=O)c1sc(-c2ccc(Cl)s2)nc1C	3.307
CN(C)c1ncc(CN2CCC(c3nnsc3S(C)(=O)=O)CC2)cn1	-0.8294
O=C(c1ccc2[nH]c(=O)[nH]c2c1)N1CCC(Nc2cccnn2)CC1	2.212
O=C(O)C(F)(F)F.[H][C@@]12CN(Cc3nccs3)C[C@]1([H])CN(C(=O)N1CCOCC1)C2	-7.729
CC(=O)N1CCC2(CCCN(Cc3ccc(Cl)c(C(F)(F)F)c3)C2)C1 (stereo unspecified)	-7.271
O=C(O)C(F)(F)F.O=C(O)C(F)(F)F.O=C(c1n[nH]c2c1CN(C1CCOC1)CC2)N1CCOCC1 (stereo unspecified)	18.83